In US8215314B2, “Photochemical tissue bonding” (The General Hospital Corporation, priority 2000, dated 2012):
At least one structure is not confirmed: it was looked up by name or label, or the drawing left a doubt.

Columns and labels:
[1] = Absorption maxima and absorption coefficients of photosensitizers; assay type: physicochemical
Excerpt: The photosensitizers were used as received with the exception of N-HPT which was recrystallized twice from aqueous ethanol before use.

[2] = tested on: corneal incision, rabbit eyes ex vivo; assay: IOP required to produce fluid leakage from corneal incision (IOPL) after PTB, ex vivo; settings: 0.6 mM Fl, 488 nm
Description: PTB can be used to seal or repair a tissue, e.g., a wound, e.g., a corneal wound. This example illustrates the experimental procedure designed to test the efficacy of PTB, as described herein, using mammalian corneas ex vivo. Experiments were performed according to the following procedure.
Rabbit eyes were received on ice (Pel-Freez Biologicals) approximately 17-24 hours after sacrifice and enucleation. The eyes were kept on ice and used the same day. The eye to be studied was mounted on a plastic-covered polystyrene block and fixed in position by needles inserted through the extraocular muscles into the polystyrene. […] Signals from the transducer amplifier were recorded using a Macintosh G3 Power book equipped with a PCMICA (DAQCARD—1200) data acquisition card (National Instruments, Tex.). […]
Experiments on individual eyes were initiated by increasing the IOP to 30-40 mm Hg, using water infusion at a rate of 1 mL per minute. […] For each eye the IOP required to produce fluid leakage from the incision (IOPL) was recorded pre- and post-PTB treatment. […]
Irradiations employed a continuous wave (CW) argon-ion laser (Innova 100; Coherent, Inc., Palo Alto, Calif.) at 488 nm (for Fl and R-5-P), 514.5 nm (for RB) or 351 nm (for NHPT). […] The IOPL was recorded immediately following treatment. […]

O=C1OC2(c3ccc(O)cc3Oc3cc(O)ccc32)c2ccccc21 [Fl, fluorescein]
absorption maximum [1]: 490 nm
absorption coefficient at the laser wavelength used ([1]; RB at 514 nm, Fl at 488 nm, MB at 661 nm, R-5-P at 488 nm, N-HPT at 351 nm): 88300 dm^3 mol^−1 cm^−1
IOPL ([2]; highest dose (1016 J/cm^2), all irradiances): 63±30 to 89±42
IOPL ([2]; two lowest doses at two lowest irradiances): No increase
